The target in assay [1] is T1, myc-LYPW-DA (human) (UniProt Q9Y2R2).
T1 sequence: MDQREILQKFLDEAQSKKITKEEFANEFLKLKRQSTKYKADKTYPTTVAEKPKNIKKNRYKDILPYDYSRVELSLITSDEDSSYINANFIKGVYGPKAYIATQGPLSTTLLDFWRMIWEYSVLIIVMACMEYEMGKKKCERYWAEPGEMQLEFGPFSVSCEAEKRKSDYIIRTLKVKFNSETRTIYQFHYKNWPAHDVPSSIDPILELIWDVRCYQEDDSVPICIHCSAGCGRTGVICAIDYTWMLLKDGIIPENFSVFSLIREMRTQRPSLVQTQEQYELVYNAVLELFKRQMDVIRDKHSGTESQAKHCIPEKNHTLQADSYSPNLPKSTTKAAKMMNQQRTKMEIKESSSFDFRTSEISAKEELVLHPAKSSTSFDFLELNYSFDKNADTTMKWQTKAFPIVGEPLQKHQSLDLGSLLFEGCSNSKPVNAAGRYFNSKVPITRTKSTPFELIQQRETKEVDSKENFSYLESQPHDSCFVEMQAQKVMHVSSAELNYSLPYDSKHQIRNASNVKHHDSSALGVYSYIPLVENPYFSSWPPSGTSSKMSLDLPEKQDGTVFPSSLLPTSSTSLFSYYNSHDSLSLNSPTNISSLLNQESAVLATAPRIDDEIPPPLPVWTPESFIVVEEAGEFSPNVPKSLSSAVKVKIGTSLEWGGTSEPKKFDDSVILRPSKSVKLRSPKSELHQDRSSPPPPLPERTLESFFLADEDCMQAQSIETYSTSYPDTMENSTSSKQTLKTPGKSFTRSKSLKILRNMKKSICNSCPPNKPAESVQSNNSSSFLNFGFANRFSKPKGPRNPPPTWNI
Description: co-IP; Jurkat cells transfected with myc-LYP and HA-CSK, untreated or treated with PV for 5 min; IP with anti-myc Ab, IB with anti-HA.

Sequences of proteins named here, by UniProt entry; tags and fusion partners are left off.
UniProt P41240: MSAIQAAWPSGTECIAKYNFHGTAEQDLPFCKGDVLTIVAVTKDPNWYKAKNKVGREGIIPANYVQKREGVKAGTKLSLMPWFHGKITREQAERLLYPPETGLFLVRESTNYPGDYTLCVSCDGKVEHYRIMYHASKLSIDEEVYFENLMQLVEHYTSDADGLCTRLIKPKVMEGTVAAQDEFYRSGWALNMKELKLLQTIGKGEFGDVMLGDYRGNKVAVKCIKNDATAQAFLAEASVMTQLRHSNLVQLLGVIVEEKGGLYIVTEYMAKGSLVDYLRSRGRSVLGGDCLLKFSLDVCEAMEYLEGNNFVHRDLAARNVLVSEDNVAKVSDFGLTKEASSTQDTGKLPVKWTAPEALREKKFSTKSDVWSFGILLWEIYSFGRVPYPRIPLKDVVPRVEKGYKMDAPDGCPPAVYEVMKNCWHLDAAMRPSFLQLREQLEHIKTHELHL

For assay [2], the target named is T2, myc-LYPR (human) (UniProt Q9Y2R2).
T2 sequence: T1 sequence with A195D, W620R
The description is as above.

Assay [3] has as its target T3, myc-LYPR-DA (human) (UniProt Q9Y2R2).
T3 sequence: T1 sequence with W620R
The assay is described as above.

Assay [4] addresses T4, endogenous LYP (Jurkat) (human (endogenous in Jurkat)) (UniProt Q9Y2R2).
T4 sequence: T1 sequence with A195D, W620R
Description: co-IP; endogenous proteins, lysates of untreated (resting) Jurkat cells; IP with anti-CSK Ab or anti-LYP Ab, IB against LYP and CSK.

Assay [5] addresses T4, endogenous LYP (Jurkat) (human (endogenous in Jurkat)). Nature of the assay: co-IP; endogenous proteins, lysates of Jurkat cells treated with PV or stimulated with anti-CD3 and anti-CD28 Abs for 5 min; IP with anti-CSK Ab or anti-LYP Ab, IB against LYP and CSK.

Substitutions are numbered along the chain they refer to. Results are given in words; binding and its absence hold for the method and conditions named. Binding seen in cells or lysates may run through a third protein. Some binding calls cover weakened binding; strength is not graded here. For some assays here: Sequences can lack the tags named with a protein.

Consider two substances from article PMC3554717.

“HA-CSK wild type (from UniProt P41240 1-450) (enzyme)”: the binding entry in assay [1], in assay [2] and in assay [3] was “binds” throughout.

For “endogenous CSK (Jurkat) (from UniProt P41240 1-450) (enzyme)”, the figures for the binding result in assay [4] and in assay [5] were “binds weakly” and “binds”, respectively.
